The nature of this data set: peptide made by a vendor. To be noted: whole synthesis, RP-HPLC.

The source of these data is article PMC10847306 (Frontiers in Cellular and Infection Microbiology, 2024).

For MAKRRKKAKKKAKKAKKRRRRR-NH2, the “final HPLC purity” value is given as 95.44% (T1 r3) and “greater than 95%” (run 1).
